Source: the supplement of paper PMC12823440, “Inhibitors supercharge kinase turnover through native proteolytic circuits” (Nature, 2025)
Structures can show the parent of a compound that is named as a salt. This is one part of the list. The calls rarely recur for the same compound in another form.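 Kinases, fused to nanoluciferase, were expressed in K562 cells; luminescence was measured every 4 h from 2 to 18 h as percent of control (DMSO = 100%, positive control = 0%). A time point is decreased if signal falls significantly (2 sigma). Hits were called by the authors by a rule that is not shown; the count of time points alone does not decide it.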

Amino acid sequences for entries named in this document (tags omitted).
UniProt Q9NYA1, whole entry: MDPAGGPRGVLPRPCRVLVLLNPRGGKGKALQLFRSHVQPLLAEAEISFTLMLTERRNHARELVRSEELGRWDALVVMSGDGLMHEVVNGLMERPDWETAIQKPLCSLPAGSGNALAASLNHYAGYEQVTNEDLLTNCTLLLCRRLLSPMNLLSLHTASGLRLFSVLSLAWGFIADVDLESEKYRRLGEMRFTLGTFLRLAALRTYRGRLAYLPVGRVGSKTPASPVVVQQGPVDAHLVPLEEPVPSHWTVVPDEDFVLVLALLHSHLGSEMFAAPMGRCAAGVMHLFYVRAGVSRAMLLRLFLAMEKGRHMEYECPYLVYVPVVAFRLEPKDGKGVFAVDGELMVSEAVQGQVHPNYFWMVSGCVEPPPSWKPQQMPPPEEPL

molecular target: SPHK1 (UniProt Q9NYA1); experiment: kinase-Nluc reporter destabilization hit call (1 = scored as downregulated) (binary); higher = compound decreases kinase abundance; details: K562; 2-18 h

kinase-Nluc reporter destabilization hit call, inactive:
Cc1cc(C)nc(NS(=O)(=O)c2ccc(NC(=S)NC(=O)COc3ccc(Br)cc3Cl)cc2)n1 (2.5 µM) 0
Oc1ccc(/C=C/c2cc(O)cc(O)c2)cc1 [Resveratrol] (10 µM) 0
COc1ccc(S(=O)(=O)NCc2ccc(C(=O)NCCc3ccc(Cl)cn3)cc2)cc1 (10 µM) 0
O=c1[nH]c(C2CCCN2)nc2c1oc1ccc(Cl)cc12 (stereo not drawn) [XL413 (hydrochloride)] (10 µM) 0
O=C(NC1CCOCC1)c1ccc(-c2cc(-c3c[nH]nc3-c3ccccn3)ccn2)cc1 (10 µM) 0
N#Cc1c2nc3ccccc3nc2n2ccc(NC(=O)c3cccs3)cc12 (10 µM) 0
COCCNc1cc(NC(=O)N2CCCc3cc(CN4CCN(C)CC4=O)c(C=O)nc32)ncc1C#N [Roblitinib] (10 µM) 0
CN(C)CCC=C1c2ccccc2CCc2ccccc21 [Amitriptyline (hydrochloride)] (2.5 µM) 0
Cn1cc(C2=C(c3cn(CCCSC(=N)N)c4ccccc34)C(=O)NC2=O)c2ccccc21 [Ro 31-8220 (mesylate)] (2.5 µM) 0
CC(C)(C)n1nc(Cc2ccccc2O)c2c(N)ncnc21 (10 µM) 0
COc1cc2ncnc(Nc3ccc(F)c(Cl)c3)c2cc1NC(=O)/C=C/CN1CCCCC1 [Dacomitinib] (10 µM) 0
C[C@@H]1COCCN1c1nc(-c2cnc(N)cc2C(F)F)nc(N2[C@H](C)COC[C@@H]2C)n1 (2.5 µM) 0
COc1cc2ncnc(Nc3ccccc3)c2cc1OC (10 µM) 0
O=C(Nc1nc2ccccc2[nH]1)c1cccc([N+](=O)[O-])c1 [IRAK-4 protein kinase inhibitor 2] (10 µM) 0
Cc1ccc(Oc2nc3cc(-c4ccc(-c5ccccc5)cc4)c(Cl)cc3[nH]2)cc1C(=O)O (10 µM) 0
c1ccc(-c2nc3c(c(-n4ccc5cnccc54)n2)CCC3)nc1 (10 µM) 0
Cn1ncc2cc(-c3cnc(N)c(Cl)c3N3CCC4(CCNC4=O)CC3)ccc21 (10 µM) 0
C[C@H](Nc1ncnc2nc[nH]c12)c1cc2cccc(Cl)c2c(=O)n1-c1ccccc1 [Duvelisib] (10 µM) 0
CS(=O)(=O)c1ccc(-c2cnc(N)c(-c3ccc(C(F)(F)F)nc3)c2)cc1 (10 µM) 0
c1cc(NC2CCNCC2)nc(-c2cnc3ccccn23)c1 [IRAK inhibitor 1] (10 µM) 0
C[C@@H]1CCNC(=O)c2cc3ccc(C(=O)Nc4nc5ccccc5n4CCCN(C)C)cc3n21 (10 µM) 0
Cc1cnc(NC2CCOCC2)nc1-n1cnc(C(=O)N[C@H](CN)c2cc(F)cc(Cl)c2)c1 (10 µM) 0
O=C(NCc1cccc(O)c1)Nc1nc(-c2ccncc2)cs1 (10 µM) 0
Cc1cc2sc(NC(=O)Cc3ccccc3)nc2cc1Cl (10 µM) 0
COc1cc2ncnc(-n3nc(-c4ccccn4)nc3N)c2cc1OC (10 µM) 0
O=C(N[C@@H](C1CC1)C(F)(F)F)c1cc(-c2cnn3cc(-c4ccc(F)cc4)cnc23)cs1 (10 µM) 0
O=C1/C(=C\c2ccc(Cl)cc2)C=C(c2ccccc2)N1c1ccc(O)cc1 (2.5 µM) 0
CNC(=O)c1ccccc1Nc1nc(Nc2ccc3c(c2OC)CCC[C@H](N2CCN(CCO)CC2)C3)ncc1Cl (10 µM) 0
C=CC(=O)Nc1cccc(CNc2nc(Nc3ccc(N4CCN(C)CC4)cc3OC)ncc2Cl)c1 (10 µM) 0
CC(C)=CCc1c(-c2ccc(O)cc2O)oc2c3c(cc(O)c2c1=O)OC(C)(C)C=C3 [Morusin] (2.5 µM) 0
CN1CCC(c2ccccc2CC(C)(C)Nc2nc(N3CCOCC3)nc(-n3c(C(F)F)nc4ccccc43)n2)CC1 [Zandelisib] (10 µM) 0
CC(C)(O)[C@H]1CC[C@H](Nc2ccc3ncc(-c4cccc(C(F)(F)F)c4)n3n2)CC1 (10 µM) 0
CC(C)c1cc(/C=C(\C#N)C(=O)NCCCc2ccccc2)cc(C(C)C)c1O (10 µM) 0

Reprinted from the entries so far (7 entries):
kinase-Nluc reporter destabilization hit call, inactive:
O=c1[nH]c(C2CCCN2)nc2c1oc1ccc(Cl)cc12 (stereo not drawn) [XL413 (hydrochloride)] (10 µM) 0
O=C(NC1CCOCC1)c1ccc(-c2cc(-c3c[nH]nc3-c3ccccn3)ccn2)cc1 (10 µM) 0
N#Cc1c2nc3ccccc3nc2n2ccc(NC(=O)c3cccs3)cc12 (10 µM) 0
COCCNc1cc(NC(=O)N2CCCc3cc(CN4CCN(C)CC4=O)c(C=O)nc32)ncc1C#N [Roblitinib] (10 µM) 0
CN(C)CCC=C1c2ccccc2CCc2ccccc21 [Amitriptyline (hydrochloride)] (2.5 µM) 0
Cn1cc(C2=C(c3cn(CCCSC(=N)N)c4ccccc34)C(=O)NC2=O)c2ccccc21 [Ro 31-8220 (mesylate)] (2.5 µM) 0
CC(C)(C)n1nc(Cc2ccccc2O)c2c(N)ncnc21 (10 µM) 0
